Like-named read-outs stand apart in the source and are kept apart here.

The nature of data set [1]: Fluorescence quenching of n-AS probes in MLVs of EPC (drug location). The class given is physicochemical. Here is the method:
Three independent experiments were carried out.
This type of fluorescence quenching can be described by the Stern-Volmer linear plots (Equation 5 and Figures 7A,B) where the fluorescence emission intensities of the labeled nanocarrier in the absence (I0) and in the presence (I) of the quencher (drugs) are plotted against the quencher concentration [Q] and it is possible to obtain linear relations in which the intercept is zero and the slope corresponds to Stern-Volmer constant, KSVapp (Lakowicz, [2014]):
The Stern-Volmer plots of the fluorescence quenching provoked by increasing concentrations of Indomethacin are not linear and present positive deviations (Figure 7C). Positive deviations from the Stern-Volmer equation are often observed when the extent of quenching is large and these deviations from linearity indicate that the quenching mechanism cannot be explained solely by a collisional mechanism (Lakowicz, [2014]). There is an apparent static quenching component caused by the close proximity of deactivating drug and fluorophore at excitation moment. The quenching is still collisional, but the existence of fluorophores and quenchers located very close to each other causes an immediate fluorescence deactivation and therefore the fluorophore and the drug appear to form non-fluorescent complexes (Lakowicz, [2014]). This type of fluorescence quenching is usually interpreted in terms of a “sphere of action” (Equation 7) within which the possibility of deactivation is equal to unity (Lakowicz, [2014]).
(7) I0/I=(1+KSVapp[Q])e^[Q]Vapp
By representing graphically I0/(Ie^[Q]Vapp) as a function of [Q], linear relations were obtained in which the slope corresponds to KSVapp (Figure 7D). Thus, Indomethacin quenching efficiency followed approximately the same order as that obtained for Acemetacin: 2-AS < 6-AS < 9-AS < 12-AS.

The conditions of data set [2]: for NSAID concentration required to obtain 25% of fluidizing effect (FE25): MLVs of EPC 500 μM, pH 7.4, concentration in lipid phase; for Rotational correlation time θ of n-AS probes with increasing drug concentrations (fluidizing effect): MLVs of EPC.

On to `Cc1ccc(C(=O)c2ccc(CC(=O)O)n2C)cc1` [Tolmetin], for which the “Fluorescence apparent bimolecular constant, Kqapp” value is 0.768 ± 0.001 (x10^−11) M^−1s^−1 in data set [1] (2-AS probe in MLVs at 25.0°C), 0.638 ± 0.001 (x10^−11) M^−1s^−1 in data set [1] (6-AS probe in MLVs at 25.0°C), 0.545 ± 0.001 (x10^−11) M^−1s^−1 in data set [1] (9-AS probe in MLVs at 25.0°C) and 0.612 ± 0.001 (x10^−11) M^−1s^−1 in data set [1] (12-AS probe in MLVs at 25.0°C). For the same molecule, the “NSAID concentration required to obtain 25% of fluidizing effect (FE25)” value in data set [2] (2-AS probe) amounted to 0.4112 ± 0.0001122 M; in data set [2] (6-AS probe) it was 0.3955 ± 0.0001582 M; in data set [2] (9-AS probe), 0.3633 ± 0.0001453 M; in data set [2] (12-AS probe) it was 0.2272 ± 0.00009089 M. Further, the “Rotational correlation time θ of n-AS probes with increasing drug concentrations (fluidizing effect)” value in data set [2] was “θ values decreased”.

Take `COc1ccc2c(c1)c(CC(=O)OCC(=O)O)c(C)n2C(=O)c1ccc(Cl)cc1` [Acemetacin]: the “Fluorescence apparent bimolecular constant, Kqapp” value in data set [1] (2-AS probe in MLVs at 25.0°C) was 5.194 ± 0.006 (x10^−11) M^−1s^−1; in data set [1] (6-AS probe in MLVs at 25.0°C), 4.424 ± 0.002 (x10^−11) M^−1s^−1; in data set [1] (9-AS probe in MLVs at 25.0°C), 4.804 ± 0.005 (x10^−11) M^−1s^−1; in data set [1] (12-AS probe in MLVs at 25.0°C), 5.675 ± 0.005 (x10^−11) M^−1s^−1. In addition, the “NSAID concentration required to obtain 25% of fluidizing effect (FE25)” value is listed as 0.1492 ± 0.0005921 M in data set [2] (2-AS probe), 0.1346 ± 0.0005386 M in data set [2] (6-AS probe), 0.0879 ± 0.0003514 M in data set [2] (9-AS probe) and 0.0459 ± 0.0001838 M in data set [2] (12-AS probe). The “Rotational correlation time θ of n-AS probes with increasing drug concentrations (fluidizing effect)” value in data set [2] was “θ values decreased”.

For the molecule `COc1ccc2c(c1)c(CC(=O)O)c(C)n2C(=O)c1ccc(Cl)cc1` [Indomethacin], the “Fluorescence apparent bimolecular constant, Kqapp” value in data set [1] (2-AS probe in MLVs at 25.0°C) is 4.013 ± 0.006 (x10^−11) M^−1s^−1; in data set [1] (6-AS probe in MLVs at 25.0°C) it was 4.029 ± 0.001 (x10^−11) M^−1s^−1; in data set [1] (9-AS probe in MLVs at 25.0°C), 4.086 ± 0.005 (x10^−11) M^−1s^−1; in data set [1] (12-AS probe in MLVs at 25.0°C), 4.181 ± 0.002 (x10^−11) M^−1s^−1. In addition, the “NSAID concentration required to obtain 25% of fluidizing effect (FE25)” value is 0.1684 ± 0.0005567 M in data set [2] (2-AS probe), 0.1255 ± 0.0005021 M in data set [2] (6-AS probe), 0.0953 ± 0.0003812 M in data set [2] (9-AS probe) and 0.0532 ± 0.0002129 M in data set [2] (12-AS probe). Besides, the “Rotational correlation time θ of n-AS probes with increasing drug concentrations (fluidizing effect)” value in data set [2] is “θ values decreased”.
